{"source": "the supplement of paper PMC8728848", "binders": {"B1": {"name": "Tp0751, 83732 (protein)", "chain": "MSYYHHHHHHLESTSLYKKAGFQHGHVPPRRIPPHDTFGALPTAALPSNARDTAAHPSDTADNTSGSSTTTDPRSHGNAPPAPVGGAAQTHTQPPVQTAMRIALWNRATHGEQGALQHLLAGLWIQTEISPNSGDIHPLLFFDREHAEITFSRASVQEIFLVDSAHTHRKTVSFLTRNTAISSIRRRLEVTFESHEVIHVRAVEDVARLKIGSTSMWDGQYTRYHAGPASAPSP"}}, "assay_in_all_cases": "glycan array binding signal (z-score within array); higher = stronger binding", "settings_in_all_cases": "glycan notation: IUPAC condensed, linker removed", "key": {"Gal(b1-2)Gal": {"biological_target": "Gal(b1-2)Gal", "outline": "(§1)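 From the Consortium for Functional Glycomics database, 3228 arrays were curated, keeping only those whose protein sequence was available. Binding is given as a within-array Z-score averaged across arrays sharing a protein sequence and across linkers. Negative Z-scores can be read as non-binding.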"}, "Gal(b1-3)Gal": {"biological_target": "Gal(b1-3)Gal", "outline": "as §1"}, "Gal(b1-3)Gal(b1-4)GlcNAc": {"biological_target": "Gal(b1-3)Gal(b1-4)GlcNAc", "outline": "as §1"}, "Gal(b1-3)GalNAc": {"biological_target": "Gal(b1-3)GalNAc", "outline": "as §1"}, "[1]": {"biological_target": "Gal(b1-3)GalNAc(a1-3)[Fuc(a1-2)]Gal(b1-4)Glc", "outline": "as §1"}, "[2]": {"biological_target": "Gal(b1-3)GalNAc(a1-3)[Fuc(a1-2)]Gal(b1-4)GlcNAc", "outline": "as §1"}, "Gal(b1-3)GalNAc(b1-3)Gal": {"biological_target": "Gal(b1-3)GalNAc(b1-3)Gal", "outline": "as §1"}, "[3]": {"biological_target": "Gal(b1-3)GalNAc(b1-3)Gal(a1-4)Gal(b1-4)Glc", "outline": "as §1"}, "[4]": {"biological_target": "Gal(b1-3)GalNAc(b1-4)Gal(b1-4)Glc", "outline": "as §1"}, "[5]": {"biological_target": "Gal(b1-3)GalNAc(b1-4)[Neu5Ac(a2-3)]Gal(b1-4)Glc", "outline": "as §1"}, "Gal(b1-3)GlcNAc": {"biological_target": "Gal(b1-3)GlcNAc", "outline": "as §1"}, "[6]": {"biological_target": "Gal(b1-3)GlcNAc(a1-3)Gal(b1-4)GlcNAc", "outline": "as §1"}, "[7]": {"biological_target": "Gal(b1-3)GlcNAc(a1-6)Gal(b1-4)GlcNAc", "outline": "as §1"}, "Gal(b1-3)GlcNAc(b1-2)Man": {"biological_target": "Gal(b1-3)GlcNAc(b1-2)Man", "outline": "as §1"}, "[8]": {"biological_target": "Gal(b1-3)GlcNAc(b1-2)Man(a1-3)[Gal(b1-3)GlcNAc(b1-2)Man(a1-6)]Man(b1-4)GlcNAc(b1-4)GlcNAc", "outline": "as §1"}, "[9]": {"biological_target": "Gal(b1-3)GlcNAc(b1-2)Man(a1-3)[Gal(b1-3)GlcNAc(b1-2)Man(a1-6)]Man(b1-4)GlcNAc(b1-4)[Fuc(a1-6)]GlcNAc", "outline": "as §1"}, "[10]": {"biological_target": "Gal(b1-3)GlcNAc(b1-2)Man(a1-3)[GlcNAc(b1-4)][Gal(b1-3)GlcNAc(b1-2)Man(a1-6)]Man(b1-4)GlcNAc(b1-4)GlcNAc", "outline": "as §1"}, "[11]": {"biological_target": "Gal(b1-3)GlcNAc(b1-2)[Gal(b1-3)GlcNAc(b1-6)]Man(a1-6)[Gal(b1-3)GlcNAc(b1-2)Man(a1-3)]Man(b1-4)GlcNAc(b1-4)GlcNAc", "outline": "as §1"}, "[12]": {"biological_target": "Gal(b1-3)GlcNAc(b1-3)Gal(b1-3)GlcNAc", "outline": "as §1"}, "[13]": {"biological_target": "Gal(b1-3)GlcNAc(b1-3)Gal(b1-4)Glc", "outline": "as §1"}, "[14]": {"biological_target": "Gal(b1-3)GlcNAc(b1-3)Gal(b1-4)GlcNAc", "outline": "as §1"}, "[15]": {"biological_target": "Gal(b1-3)GlcNAc(b1-3)Gal(b1-4)GlcNAc(b1-2)Man(a1-3)[Gal(b1-3)GlcNAc(b1-3)Gal(b1-4)GlcNAc(b1-2)Man(a1-6)]Man(b1-4)GlcNAc(b1-4)GlcNAc", "outline": "as §1"}, "[16]": {"biological_target": "Gal(b1-3)GlcNAc(b1-3)Gal(b1-4)GlcNAc(b1-2)[Gal(b1-3)GlcNAc(b1-3)Gal(b1-4)GlcNAc(b1-6)]Man(a1-6)[Gal(b1-3)GlcNAc(b1-3)Gal(b1-4)GlcNAc(b1-2)Man(a1-3)]Man(b1-4)GlcNAc(b1-4)[Fuc(a1-6)]GlcNAc", "outline": "as §1"}, "[17]": {"biological_target": "Gal(b1-3)GlcNAc(b1-3)Gal(b1-4)GlcNAc(b1-3)Gal(b1-4)GlcNAc(b1-2)[Gal(b1-3)GlcNAc(b1-3)Gal(b1-4)GlcNAc(b1-3)Gal(b1-4)GlcNAc(b1-6)]Man(a1-6)[Gal(b1-3)GlcNAc(b1-3)Gal(b1-4)GlcNAc(b1-3)Gal(b1-4)GlcNAc(b1-2)Man(a1-3)]Man(b1-4)GlcNAc(b1-4)[Fuc(a1-6)]GlcNAc", "outline": "as §1"}, "[18]": {"biological_target": "Gal(b1-3)GlcNAc(b1-3)Gal(b1-4)GlcNAc(b1-6)[Gal(b1-3)GlcNAc(b1-3)]Gal(b1-4)Glc", "outline": "as §1"}, "[19]": {"biological_target": "Gal(b1-3)GlcNAc(b1-3)Gal(b1-4)[Fuc(a1-3)]GlcNAc(b1-6)[Gal(b1-3)GlcNAc(b1-3)]Gal(b1-4)Glc", "outline": "as §1"}, "[20]": {"biological_target": "Gal(b1-3)GlcNAc(b1-3)GalNAc", "outline": "as §1"}, "[21]": {"biological_target": "Gal(b1-3)GlcNAc(b1-6)Gal(b1-4)GlcNAc", "outline": "as §1"}, "[22]": {"biological_target": "Gal(b1-3)GlcNAc(b1-6)GalNAc", "outline": "as §1"}, "[23]": {"biological_target": "Gal(b1-3)GlcNAc(b1-6)[Gal(b1-3)]GalNAc", "outline": "as §1"}, "Gal(b1-3)GlcNAc6S": {"biological_target": "Gal(b1-3)GlcNAc6S", "outline": "as §1"}, "[24]": {"biological_target": "Gal(b1-3)[Fuc(a1-4)]GlcNAc", "outline": "as §1"}, "[25]": {"biological_target": "Gal(b1-3)[Fuc(a1-4)]GlcNAc(b1-2)Man", "outline": "as §1"}, "[26]": {"biological_target": "Gal(b1-3)[Fuc(a1-4)]GlcNAc(b1-2)Man(a1-3)[Gal(b1-3)[Fuc(a1-4)]GlcNAc(b1-2)Man(a1-6)]Man(b1-4)GlcNAc(b1-4)[Fuc(a1-6)]GlcNAc", "outline": "as §1"}, "[27]": {"biological_target": "Gal(b1-3)[Fuc(a1-4)]GlcNAc(b1-3)Gal(b1-3)[Fuc(a1-4)]GlcNAc", "outline": "as §1"}, "[28]": {"biological_target": "Gal(b1-3)[Fuc(a1-4)]GlcNAc(b1-3)Gal(b1-4)GlcNAc", "outline": "as §1"}, "[29]": {"biological_target": "Gal(b1-3)[Fuc(a1-4)]GlcNAc(b1-3)Gal(b1-4)[Fuc(a1-3)]GlcNAc", "outline": "as §1"}, "[30]": {"biological_target": "Gal(b1-3)[Fuc(a1-4)]GlcNAc(b1-6)GalNAc", "outline": "as §1"}, "[31]": {"biological_target": "Gal(b1-3)[GlcNAc(b1-6)]GalNAc", "outline": "as §1"}, "[32]": {"biological_target": "Gal(b1-3)[Neu5Ac(a2-6)]GalNAc", "outline": "as §1"}, "[33]": {"biological_target": "Gal(b1-3)[Neu5Ac(a2-6)]GlcNAc(b1-4)Gal(b1-4)Glc", "outline": "as §1"}, "[34]": {"biological_target": "Gal(b1-3)[Neu5Ac(b2-6)]GalNAc", "outline": "as §1"}, "Gal(b1-4)Gal": {"biological_target": "Gal(b1-4)Gal", "outline": "as §1"}, "[35]": {"biological_target": "Gal(b1-4)GalNAc(a1-3)[Fuc(a1-2)]Gal(b1-4)GlcNAc", "outline": "as §1"}, "[36]": {"biological_target": "Gal(b1-4)GalNAc(b1-3)[Fuc(a1-2)]Gal(b1-4)GlcNAc", "outline": "as §1"}}, "note": "The list shows a part of the results.", "data": [{"binder": "B1", "values": [{"measurement": "glycan array binding signal (z-score)", "setting": "Gal(b1-2)Gal", "value": 2.31}, {"measurement": "glycan array binding signal (z-score)", "setting": "Gal(b1-3)Gal", "value": 0.017}, {"measurement": "glycan array binding signal (z-score)", "setting": "Gal(b1-3)Gal(b1-4)GlcNAc", "value": -0.423}, {"measurement": "glycan array binding signal (z-score)", "setting": "Gal(b1-3)GalNAc", "value": -0.193}, {"measurement": "glycan array binding signal (z-score)", "setting": "[1]", "value": -0.352}, {"measurement": "glycan array binding signal (z-score)", "setting": "[2]", "value": -0.541}, {"measurement": "glycan array binding signal (z-score)", "setting": "Gal(b1-3)GalNAc(b1-3)Gal", "value": -0.75}, {"measurement": "glycan array binding signal (z-score)", "setting": "[3]", "value": -0.679}, {"measurement": "glycan array binding signal (z-score)", "setting": "[4]", "value": -0.667}, {"measurement": "glycan array binding signal (z-score)", "setting": "[5]", "value": -0.127}, {"measurement": "glycan array binding signal (z-score)", "setting": "Gal(b1-3)GlcNAc", "value": -0.323}, {"measurement": "glycan array binding signal (z-score)", "setting": "[6]", "value": -0.151}, {"measurement": "glycan array binding signal (z-score)", "setting": "[7]", "value": -0.141}, {"measurement": "glycan array binding signal (z-score)", "setting": "Gal(b1-3)GlcNAc(b1-2)Man", "value": -0.234}, {"measurement": "glycan array binding signal (z-score)", "setting": "[8]", "value": -0.278}, {"measurement": "glycan array binding signal (z-score)", "setting": "[9]", "value": -0.013}, {"measurement": "glycan array binding signal (z-score)", "setting": "[10]", "value": -0.054}, {"measurement": "glycan array binding signal (z-score)", "setting": "[11]", "value": -0.217}, {"measurement": "glycan array binding signal (z-score)", "setting": "[12]", "value": -0.474}, {"measurement": "glycan array binding signal (z-score)", "setting": "[13]", "value": 0.067}, {"measurement": "glycan array binding signal (z-score)", "setting": "[14]", "value": -0.382}, {"measurement": "glycan array binding signal (z-score)", "setting": "[15]", "value": -0.087}, {"measurement": "glycan array binding signal (z-score)", "setting": "[16]", "value": 1.41}, {"measurement": "glycan array binding signal (z-score)", "setting": "[17]", "value": -0.07}, {"measurement": "glycan array binding signal (z-score)", "setting": "[18]", "value": 0.04}, {"measurement": "glycan array binding signal (z-score)", "setting": "[19]", "value": -0.401}, {"measurement": "glycan array binding signal (z-score)", "setting": "[20]", "value": -0.782}, {"measurement": "glycan array binding signal (z-score)", "setting": "[21]", "value": -0.428}, {"measurement": "glycan array binding signal (z-score)", "setting": "[22]", "value": -0.077}, {"measurement": "glycan array binding signal (z-score)", "setting": "[23]", "value": -0.35}, {"measurement": "glycan array binding signal (z-score)", "setting": "Gal(b1-3)GlcNAc6S", "value": 0.206}, {"measurement": "glycan array binding signal (z-score)", "setting": "[24]", "value": -0.004}, {"measurement": "glycan array binding signal (z-score)", "setting": "[25]", "value": -0.163}, {"measurement": "glycan array binding signal (z-score)", "setting": "[26]", "value": -0.273}, {"measurement": "glycan array binding signal (z-score)", "setting": "[27]", "value": -0.323}, {"measurement": "glycan array binding signal (z-score)", "setting": "[28]", "value": -0.193}, {"measurement": "glycan array binding signal (z-score)", "setting": "[29]", "value": -0.612}, {"measurement": "glycan array binding signal (z-score)", "setting": "[30]", "value": -0.629}, {"measurement": "glycan array binding signal (z-score)", "setting": "[31]", "value": -0.373}, {"measurement": "glycan array binding signal (z-score)", "setting": "[32]", "value": -0.43}, {"measurement": "glycan array binding signal (z-score)", "setting": "[33]", "value": 0.263}, {"measurement": "glycan array binding signal (z-score)", "setting": "[34]", "value": -0.271}, {"measurement": "glycan array binding signal (z-score)", "setting": "Gal(b1-4)Gal", "value": -0.525}, {"measurement": "glycan array binding signal (z-score)", "setting": "[35]", "value": -0.503}, {"measurement": "glycan array binding signal (z-score)", "setting": "[36]", "value": -0.474}]}]}
